Results deposited as PubChem BioAssay AID504791 (Drosophila RNAi Screening Center, 2011)
The deposit covers about 23,000 reagents; shown is an unselected part of those with a known target gene and a result. Of all reagents, 199 (0.86%) are marked active. 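Plate-scaled ratios behind the calls are not deposited; printed light signals are raw; many rows marked increased or decreased are still called inactive.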 Unmarked entries are inactive. Names joined by + are all predicted targets of the reagent.

Aim: 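Genes whose knock-down strengthens or weakens small-RNA reporter silencing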 (primary screen)
Cell system: Drosophila S2-derived reporter cells
Reagents: long dsRNA against Drosophila genes, about 150-250 ng dsRNA per well (siRNA assay); about 80-120 ng (miRNA assay)
Time to read-out: about 5 days (siRNA assay); about 4 days (miRNA assay)
Treatment: copper sulfate induction of reporters: 25 µM (siRNA assay); 200 mM stated (miRNA assay), 1-2 days before reading
Measured: 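Per-well ratio of Renilla over firefly light, expressed relative to that plate's average ratio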
Reading the numbers: siRNA reporter hit score: higher = 3 marks a strong hit with raised ratio; -3 a strong hit with lowered ratio
Active means: 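First-pass picks had plate-scaled ratios over 1.5 for the siRNA assay, over 1.6 for the miRNA assay, or under 0.6; two distinct dsRNAs had to score alike on retest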

Against shot [DRSC05459] the deposit lists stable assay Renilla, run 1 (luminescence) = 6351; stable assay firefly, run 1 (luminescence) = 4.08e5. Against shot [DRSC05460], the entry reads stable assay Renilla, run 1 (luminescence) = 5795; stable assay firefly, run 1 (luminescence) = 3.20e5. After knock-down of shot [DRSC07682], the record shows stable assay Renilla, run 1 (luminescence) = 7737; stable assay firefly, run 1 (luminescence) = 4.59e5. tctn + B9d2 [DRSC03160] showed stable assay Renilla, run 1 (luminescence) = 9087; stable assay firefly, run 1 (luminescence) = 5.47e5. With knock-down of CG10081 [DRSC05962], the record shows stable assay Renilla, run 1 (luminescence) = 6688; stable assay firefly, run 1 (luminescence) = 3.51e5. For Pp1-13C [DRSC20269] the deposit lists stable assay Renilla, run 1 (luminescence) = 9584; stable assay firefly, run 1 (luminescence) = 6.49e5.

Pp1-13C [DRSC23305] showed stable siRNA reporter change reporter ratio raised past the hit cutoff; stable assay Renilla, run 1 (luminescence) = 4263; stable assay firefly, run 1 (luminescence) = 1.96e5. ATP8B [DRSC14961] scored stable assay Renilla, run 1 (luminescence) = 6270; stable assay firefly, run 1 (luminescence) = 4.13e5. Knock-down of Or9a [DRSC18692] gave: stable assay Renilla, run 1 (luminescence) = 4671; stable assay firefly, run 1 (luminescence) = 4.11e5. Depletion of Reepl1 [DRSC19418] gave: stable assay Renilla, run 1 (luminescence) = 5559; stable assay firefly, run 1 (luminescence) = 5.17e5. For alrm [DRSC14436], the values are stable assay Renilla, run 1 (luminescence) = 7456; stable assay firefly, run 1 (luminescence) = 3.91e5. For CG11030 [DRSC02120], the entry reads stable assay Renilla, run 1 (luminescence) = 7590; stable assay firefly, run 1 (luminescence) = 2.93e5.

With knock-down of CG32473 [DRSC14352], the record shows stable assay Renilla, run 1 (luminescence) = 7259; stable assay firefly, run 1 (luminescence) = 4.50e5. CG32473 [DRSC16446] showed stable assay Renilla, run 1 (luminescence) = 8191; stable assay firefly, run 1 (luminescence) = 5.62e5. With knock-down of CG17030 [DRSC08503], the record shows stable assay Renilla, run 1 (luminescence) = 6815; stable assay firefly, run 1 (luminescence) = 4.60e5. Depletion of TfIIEalpha [DRSC11303] resulted in: siRNA reporter hit score -3; stable assay Renilla, run 1 (luminescence) = 6762; stable assay firefly, run 1 (luminescence) = 4.52e5. Atx-1 [DRSC18365] scored stable assay Renilla, run 1 (luminescence) = 5844; stable assay firefly, run 1 (luminescence) = 3.59e5. CG30339 [DRSC05168] showed stable assay Renilla, run 1 (luminescence) = 5295; stable assay firefly, run 1 (luminescence) = 3.50e5.

CG17816 [DRSC15277] gave stable assay Renilla, run 1 (luminescence) = 6055; stable assay firefly, run 1 (luminescence) = 4.65e5.
